Where two headings read alike, the source gives them in different places. At least one peptide structure holds a part that was inferred or is arguable (an end, a ring closure or a residue). At least one compound was matched to its structure with a doubt left. Where a SMILES comes first, the peptide text is derived from it.
Key:
TPO receptor = target: T1, TPO receptor (Homo sapiens, UniProt P40238); assay: Microphysiometer assay: rate of acidification of extracellular medium on TPO receptor stimulation; assay type: cell-based
T1 sequence (P40238 26-635): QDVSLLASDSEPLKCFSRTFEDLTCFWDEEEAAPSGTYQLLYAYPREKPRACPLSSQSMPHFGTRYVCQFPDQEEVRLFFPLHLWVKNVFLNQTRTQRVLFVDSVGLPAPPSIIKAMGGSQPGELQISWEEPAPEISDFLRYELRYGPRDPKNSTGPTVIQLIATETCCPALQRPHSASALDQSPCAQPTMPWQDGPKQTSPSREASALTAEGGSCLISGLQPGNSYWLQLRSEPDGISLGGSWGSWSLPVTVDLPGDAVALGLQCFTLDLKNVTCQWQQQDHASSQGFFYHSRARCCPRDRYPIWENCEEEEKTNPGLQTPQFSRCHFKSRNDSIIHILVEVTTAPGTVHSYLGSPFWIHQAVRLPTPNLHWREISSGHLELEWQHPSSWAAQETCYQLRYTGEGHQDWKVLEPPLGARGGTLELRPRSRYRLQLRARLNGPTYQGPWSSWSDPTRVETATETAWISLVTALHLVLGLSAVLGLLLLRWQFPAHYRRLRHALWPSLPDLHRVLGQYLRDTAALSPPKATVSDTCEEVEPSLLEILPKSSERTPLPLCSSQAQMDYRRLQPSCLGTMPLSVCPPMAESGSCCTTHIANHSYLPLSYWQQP

TPO-R = target: T2, TPO-R (Homo sapiens, UniProt P40238); assay: Competition binding assay (equilibrium binding ELISA, MBP-TPO156 tracer) on immobilized TPO-R; details: read-out: IC50
T2 construct: made in house
T2 sequence (P40238 26-491 limits assumed): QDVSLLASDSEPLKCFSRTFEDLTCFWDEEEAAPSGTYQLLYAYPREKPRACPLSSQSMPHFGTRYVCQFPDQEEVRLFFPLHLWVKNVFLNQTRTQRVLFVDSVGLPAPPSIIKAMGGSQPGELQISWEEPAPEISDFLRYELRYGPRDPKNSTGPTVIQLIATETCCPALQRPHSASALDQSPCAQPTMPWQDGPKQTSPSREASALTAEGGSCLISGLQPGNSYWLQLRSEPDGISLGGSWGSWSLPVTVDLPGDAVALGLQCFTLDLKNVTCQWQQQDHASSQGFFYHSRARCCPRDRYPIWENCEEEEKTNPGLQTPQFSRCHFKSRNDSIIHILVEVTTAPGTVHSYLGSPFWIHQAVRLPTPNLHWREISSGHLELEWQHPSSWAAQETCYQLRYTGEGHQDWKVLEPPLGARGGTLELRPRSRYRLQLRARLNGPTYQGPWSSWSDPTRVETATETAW

[1] = target: T3, human TPO-R (transfected Ba/F3 cells) (Homo sapiens, UniProt P40238); assay: Thrombopoietin dependent cell proliferation assay (MTT), TPO-R transfected Ba/F3 cells; assay type: cell-based
T3 construct: Murine IL-3 dependent Ba/F3 cells were transfected with full length human TPO-R; expressed in transfected cells; host or cells: murine Ba/F3 cells
T3 sequence (P40238 26-635): T1 sequence (P40238 26-635)

[2] = Table 7, dimer compounds, read-out: EC50 (nM) Microonys.
[3] = Table 7, dimer compounds, read-out: EC50 (nM) Prolif.
[4] = Table 5, value in parentheses, read-out: EC50 (nM), microphysiometer results given in parentheses
[5] = Table 5, substitutions in cyclized compound, read-out: EC50 (nM) Cell Prolif.

Structure (SMILES)	EC50 (TPO receptor; [2])	IC50 (TPO-R; Table 7, dimer compounds)	EC50 [1, 3]	EC50 (TPO receptor; [4])	IC50 (TPO-R; Table 5)	EC50 [1, 5]
CC[C@H](C)[C@H](NC(=O)[C@H](Cc1c[nH]c2ccccc12)NC(=O)[C@H](CCC(=O)O)NC(=O)[C@H](CCCNC(=N)N)NC(=O)[C@H](CC(C)C)NC(=O)[C@@H](NC(=O)[C@@H]1CCCN1)[C@@H](C)O)C(=O)N[C@@H](CO)C(=O)N[C@@H](Cc1ccccc1)C(=O)N[C@@H](CSSC[C@H](NC(=O)[C@H](Cc1ccccc1)NC(=O)[C@H](CO)NC(=O)[C@@H](NC(=O)[C@H](Cc1c[nH]c2ccccc12)NC(=O)[C@H](CCC(=O)O)NC(=O)[C@H](CCCNC(=N)N)NC(=O)[C@H](CC(C)C)NC(=O)[C@@H](NC(=O)[C@@H]1CCCN1)[C@@H](C)O)[C@@H](C)CC)C(N)=O)C(N)=O (HELM PEPTIDE1{P.T.L.R.E.W.I.S.F.C.[am]}|PEPTIDE2{P.T.L.R.E.W.I.S.F.C.[am]}$PEPTIDE1,PEPTIDE2,10:R3-10:R3$$$V2.0)	< 500 nM	≤ 200000 nM	< 500 nM	–	–	–
CC[C@H](C)[C@H](NC(=O)[C@H](Cc1c[nH]c2ccccc12)NC(=O)[C@H](CCC(=O)O)NC(=O)[C@H](CCCNC(=N)N)NC(=O)[C@H](CC(C)C)NC(=O)[C@@H](N)[C@@H](C)O)C(=O)N[C@@H](CO)C(=O)N[C@@H](Cc1ccccc1)C(=O)N[C@@H](CSSC[C@H](NC(=O)[C@H](Cc1ccccc1)NC(=O)[C@H](CO)NC(=O)[C@@H](NC(=O)[C@H](Cc1c[nH]c2ccccc12)NC(=O)[C@H](CCC(=O)O)NC(=O)[C@H](CCCNC(=N)N)NC(=O)[C@H](CC(C)C)NC(=O)[C@@H](N)[C@@H](C)O)[C@@H](C)CC)C(N)=O)C(N)=O (HELM PEPTIDE1{T.L.R.E.W.I.S.F.C.[am]}|PEPTIDE2{T.L.R.E.W.I.S.F.C.[am]}$PEPTIDE1,PEPTIDE2,9:R3-9:R3$$$V2.0)	< 500 nM	≤ 200000 nM	< 200000 nM	–	–	–
CC[C@H](C)[C@H](NC(=O)[C@H](Cc1c[nH]c2ccccc12)NC(=O)[C@H](CCC(=O)O)NC(=O)[C@H](CCCNC(=N)N)NC(=O)[C@H](CC(C)C)NC(=O)[C@@H](NC(=O)[C@@H]1CCCN1C(=O)CNC(=O)[C@H](CC(=O)O)NC(=O)[C@H](C)NC(=O)C(C)(C)Br)[C@@H](C)O)C(=O)N[C@@H](CO)C(=O)N[C@@H](Cc1ccccc1)C(=O)N[C@@H](CSSC[C@H](NC(=O)[C@H](Cc1ccccc1)NC(=O)[C@H](CO)NC(=O)[C@@H](NC(=O)[C@H](Cc1c[nH]c2ccccc12)NC(=O)[C@H](CCC(=O)O)NC(=O)[C@H](CCCNC(=N)N)NC(=O)[C@H](CC(C)C)NC(=O)[C@@H](NC(=O)[C@@H]1CCCN1C(=O)CNC(=O)[C@H](CC(=O)O)NC(=O)[C@H](C)NC(=O)C(C)(C)Br)[C@@H](C)O)[C@@H](C)CC)C(N)=O)C(N)=O (HELM PEPTIDE1{[CC(C)(Br)C(=O)[*:2]].A.D.G.P.T.L.R.E.W.I.S.F.C.[am]}|PEPTIDE2{[CC(C)(Br)C(=O)[*:2]].A.D.G.P.T.L.R.E.W.I.S.F.C.[am]}$PEPTIDE1,PEPTIDE2,14:R3-14:R3$$$V2.0)	< 500 nM	≤ 500 nM	< 500 nM	–	–	–
CC[C@H](C)[C@H](NC(=O)[C@H](Cc1c[nH]c2ccccc12)NC(=O)[C@H](CCC(=O)O)NC(=O)[C@H](CCCNC(=N)N)NC(=O)[C@H](CC(C)C)NC(=O)[C@@H](NC(=O)[C@@H]1CCCN1C(=O)CNC(=O)[C@H](CCC(=O)O)NC(C)=O)[C@@H](C)O)C(=O)N[C@@H](CO)C(=O)N[C@@H](Cc1ccccc1)C(=O)N[C@@H](CSSC[C@H](NC(=O)[C@H](Cc1ccccc1)NC(=O)[C@H](CO)NC(=O)[C@@H](NC(=O)[C@H](Cc1c[nH]c2ccccc12)NC(=O)[C@H](CCC(=O)O)NC(=O)[C@H](CCCNC(=N)N)NC(=O)[C@H](CC(C)C)NC(=O)[C@@H](NC(=O)[C@@H]1CCCN1C(=O)CNC(=O)[C@H](CCC(=O)O)NC(C)=O)[C@@H](C)O)[C@@H](C)CC)C(N)=O)C(N)=O (HELM PEPTIDE1{[ac].E.G.P.T.L.R.E.W.I.S.F.C.[am]}|PEPTIDE2{[ac].E.G.P.T.L.R.E.W.I.S.F.C.[am]}$PEPTIDE1,PEPTIDE2,13:R3-13:R3$$$V2.0)	< 500 nM	≤ 500 nM	< 500 nM	–	–	–
CC[C@H](C)[C@H](NC(=O)[C@H](Cc1c[nH]c2ccccc12)NC(=O)[C@H](CCC(=O)O)NC(=O)[C@H](CCCNC(=N)N)NC(=O)[C@H](CC(C)C)NC(=O)[C@@H](NC(C)=O)[C@@H](C)O)C(=O)N[C@@H](CO)C(=O)N[C@@H](Cc1ccccc1)C(=O)N[C@@H](CSSC[C@H](NC(=O)[C@H](Cc1ccccc1)NC(=O)[C@H](CO)NC(=O)[C@@H](NC(=O)[C@H](Cc1c[nH]c2ccccc12)NC(=O)[C@H](CCC(=O)O)NC(=O)[C@H](CCCNC(=N)N)NC(=O)[C@H](CC(C)C)NC(=O)[C@@H](NC(C)=O)[C@@H](C)O)[C@@H](C)CC)C(N)=O)C(N)=O (HELM PEPTIDE1{[ac].T.L.R.E.W.I.S.F.C.[am]}|PEPTIDE2{[ac].T.L.R.E.W.I.S.F.C.[am]}$PEPTIDE1,PEPTIDE2,10:R3-10:R3$$$V2.0)	< 200000 nM	≤ 200000 nM	< 200000 nM	–	–	–
CC[C@H](C)[C@@H]1NC(=O)[C@H](Cc2c[nH]c3ccccc23)NC(=O)[C@H](CCC(=O)O)NC(=O)[C@H](CCCNC(=N)N)NC(=O)[C@H](CC(C)C)NC(=O)[C@H]([C@@H](C)O)NC(=O)[C@@H]2CCCN2C(=O)CNC(=O)[C@H](CC(=O)O)NC(=O)[C@H](C)NC(=O)[C@@H](N)CSSC[C@@H](C(N)=O)NC(=O)[C@H](Cc2ccc3ccccc3c2)NC(=O)[C@H](CO)NC1=O [F-(2-Nal)] (HELM PEPTIDE1{C.A.D.G.P.T.L.R.E.W.I.S.[O=C([C@H](Cc1ccc2ccccc2c1)N[*:1])[*:2]].C.[am]}$PEPTIDE1,PEPTIDE1,1:R3-14:R3$$$V2.0)	–	–	–	< 500 nM	≤ 500 nM	< 500 nM
CC[C@H](C)[C@@H]1NC(=O)[C@H](Cc2c[nH]c3ccccc23)NC(=O)[C@H](CCC(=O)O)NC(=O)[C@H](CCCNC(=N)N)NC(=O)[C@H](CC(C)C)NC(=O)[C@H]([C@@H](C)O)NC(=O)[C@@H]2CCCN2C(=O)CNC(=O)[C@H](CC(=O)O)NC(=O)[C@H](C)NC(=O)[C@@H](N)CSSC[C@@H](C(N)=O)NC(=O)[C@H](Cc2ccc(Cl)c(Cl)c2)NC(=O)[C@H](CO)NC1=O [F-(3,4-di-Cl-Phe)] (HELM PEPTIDE1{C.A.D.G.P.T.L.R.E.W.I.S.[O=C([C@H](Cc1ccc(Cl)c(Cl)c1)N[*:1])[*:2]].C.[am]}$PEPTIDE1,PEPTIDE1,1:R3-14:R3$$$V2.0)	–	–	–	< 200000 nM	≤ 500 nM	< 500 nM

Other lines, results leading:

EC50 (TPO receptor; [2])	IC50 (TPO-R; Table 7, dimer compounds)	EC50 [1, 3]	EC50 (TPO receptor; [4])	IC50 (TPO-R; Table 5)	EC50 [1, 5]	Structure (SMILES)
–	–	–	< 200000 nM	≤ 500 nM	< 200000 nM	CC[C@H](C)[C@@H]1NC(=O)[C@H](Cc2c[nH]c3ccccc23)NC(=O)[C@H](CCC(=O)O)NC(=O)[C@H](CCCNC(=N)N)NC(=O)[C@H](CC(C)C)NC(=O)[C@H]([C@@H](C)O)NC(=O)[C@@H]2CCCN2C(=O)CNC(=O)[C@H](C)NC(=O)[C@H](C)NC(=O)[C@@H](N)CSSC[C@@H](C(N)=O)NC(=O)[C@H](Cc2ccccc2)NC(=O)[C@H](CO)NC1=O [D–A] (HELM PEPTIDE1{C.A.A.G.P.T.L.R.E.W.I.S.F.C.[am]}$PEPTIDE1,PEPTIDE1,1:R3-14:R3$$$V2.0)
–	–	–	< 200000 nM	≤ 500 nM	< 500 nM	CC[C@H](C)[C@@H]1NC(=O)[C@H](Cc2c[nH]c3ccccc23)NC(=O)[C@H](CCC(N)=O)NC(=O)[C@H](CCCNC(=N)N)NC(=O)[C@H](CC(C)C)NC(=O)[C@H]([C@@H](C)O)NC(=O)[C@@H]2CCCN2C(=O)CNC(=O)[C@H](CC(=O)O)NC(=O)[C@H](C)NC(=O)[C@@H](N)CSSC[C@@H](C(N)=O)NC(=O)[C@H](Cc2ccccc2)NC(=O)[C@H](CO)NC1=O [E–Q] (HELM PEPTIDE1{C.A.D.G.P.T.L.R.Q.W.I.S.F.C.[am]}$PEPTIDE1,PEPTIDE1,1:R3-14:R3$$$V2.0)
–	–	–	< 500 nM	≤ 500 nM	< 500 nM	CC[C@H](C)[C@@H]1NC(=O)[C@H](Cc2c[nH]c3ccccc23)NC(=O)[C@H](CCC(=O)O)NC(=O)[C@H](CCCNC(=N)N)NC(=O)[C@H](CC(C)C)NC(=O)[C@H]([C@@H](C)O)NC(=O)[C@@H]2CCCN2C(=O)CNC(=O)[C@H](CC(=O)O)NC(=O)[C@H](C)NC(=O)[C@@H](N)CSSC[C@@H](C(N)=O)NC(=O)[C@H](c2ccccc2)NC(=O)[C@H](CO)NC1=O [F-(Phenylgly)] (HELM PEPTIDE1{C.A.D.G.P.T.L.R.E.W.I.S.[Phg].C.[am]}$PEPTIDE1,PEPTIDE1,1:R3-14:R3$$$V2.0)

Reference: patent US8227422B2, “Peptides and compounds that bind to a receptor” (Glaxosmithkline LLC, priority 1996, dated 2012)
